Results as given in patent US20140056890A1 (ONCEMED PHARMACEUTICALS, published 2014).

Biological target: FLAG-tagged full-length JAM2 (human)
Test: anti-FLAG co-IP from HEK-293T transfected with FLAG-tagged full-length JAM2, mass spectrometry

binding: binds
B1: endogenous JAM3 (receptor)
chain: VNLKSSNRTPVVQEFESVELSCIITDSQTSDPRIEWKKIQDEQTTYVFFDNKIQGDLAGRAEILGKTSLKIWNVTRRDSALYRCEVVARNDRKEIDEIVIELTVQVKPVTPVCRVPKAVPVGKMATLHCQESEGHPRPHYSWYRNDVPLPTDSRANPRFRNSSFHLNSETGTLVFTAVHKDDSGQYYCIASNDAGSARCEEQEMEVYDLNIGGIIGGVLVVLAVLALITLGICCAYRRGYFINNKQDGESYKNPGKPDGVNYIRTDEEGDFRHKSSFVI

No constants are given. Whether binding was seen depends on the method and setting. Binding seen in cells or lysates may run through a third protein. These calls come from enrichment with a bait or labelling near it, and not all partners need be listed.
